Data source: PubChem BioAssay AID1259405 (NCATS, 2018)

Aim: 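Silenced genes that increase secreted GFP made by CHO cells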 (primary screen)
Cell system: Chinese hamster CHO-K1 ovary cells with stable secreted eGFP expression
Reagents: single siRNA against mouse genes, 0.8 pmol siRNA per well (2 µl of 400 nM stock)
Timing: 3 days
Measured: 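Per-well intracellular GFP measured by laser scanning cytometry, plus viability from ATP luminescence, each relative to plate median of non-targeting control wells, in %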
Reading the numbers: GFP, % of control: higher = more GFP per well, higher productivity; viability (ATP), % of control: higher = more viable cells (more ATP)
Hit rule: 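Called active when intracellular GFP, relative to negative control, is at or above 120%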
The whole screen tested about 50,000 reagents; this is an unselected part. Of all reagents, about 4,000 (8%) got an active call. 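Mouse siRNA library applied to hamster cells; one well for each siRNA.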 No sequences are given here.

Kcna1 [SID363574582] → GFP, % of control: 117; viability (ATP), % of control: 64.3; activity call: inactive
Kcna1 [SID363575638] → GFP, % of control: 84.8; viability (ATP), % of control: 39.8; activity call: inactive
Kcna1 [SID363580214] → GFP, % of control: 78.4; viability (ATP), % of control: 84.1; activity call: inactive
Adamts10 (ADAM metallopeptidase with thrombospondin type 1 motif 10) [SID363574240] → GFP, % of control: 64; viability (ATP), % of control: 58.1; activity call: inactive
Adamts10 (ADAM metallopeptidase with thrombospondin type 1 motif 10) [SID363575296] → GFP, % of control: 59.1; viability (ATP), % of control: 35.9; activity call: inactive
Adamts10 (ADAM metallopeptidase with thrombospondin type 1 motif 10) [SID363579872] → GFP, % of control: 113; viability (ATP), % of control: 93.1; activity call: inactive
Tfb1m (transcription factor B1, mitochondrial) [SID363568968] → GFP, % of control: 122; viability (ATP), % of control: 81.7; activity call: active
Tfb1m (transcription factor B1, mitochondrial) [SID363583400] → GFP, % of control: 73.8; viability (ATP), % of control: 76.5; activity call: inactive

Targets above whose gene name starts with A or a:
Adamts10 (ADAM metallopeptidase with thrombospondin type 1 motif 10) [SID363574240] → GFP, % of control: 64; viability (ATP), % of control: 58.1; activity call: inactive
Adamts10 (ADAM metallopeptidase with thrombospondin type 1 motif 10) [SID363575296] → GFP, % of control: 59.1; viability (ATP), % of control: 35.9; activity call: inactive
Adamts10 (ADAM metallopeptidase with thrombospondin type 1 motif 10) [SID363579872] → GFP, % of control: 113; viability (ATP), % of control: 93.1; activity call: inactive

Next records follow:
Nt5c1b (5'-nucleotidase, cytosolic IB) [SID363562350] → GFP, % of control: 78.2; viability (ATP), % of control: 71.5; activity call: inactive
Nt5c1b (5'-nucleotidase, cytosolic IB) [SID363567488] → GFP, % of control: 73; viability (ATP), % of control: 60.9; activity call: inactive
Nt5c1b (5'-nucleotidase, cytosolic IB) [SID363584845] → GFP, % of control: 57.4; viability (ATP), % of control: 53.5; activity call: inactive
Nphp4 (nephronophthisis 4 (juvenile) homolog (human)) [SID363562304] → GFP, % of control: 126; viability (ATP), % of control: 65.9; activity call: active
Nphp4 (nephronophthisis 4 (juvenile) homolog (human)) [SID363567442] → GFP, % of control: 110; viability (ATP), % of control: 73.7; activity call: inactive
Nphp4 (nephronophthisis 4 (juvenile) homolog (human)) [SID363584799] → GFP, % of control: 79.1; viability (ATP), % of control: 71.3; activity call: inactive
Stmn3 (stathmin-like 3) [SID363556335] → GFP, % of control: 106; viability (ATP), % of control: 87.1; activity call: inactive
Stmn3 (stathmin-like 3) [SID363586785] → GFP, % of control: 104; viability (ATP), % of control: 125; activity call: inactive
Stmn3 (stathmin-like 3) [SID363588893] → GFP, % of control: 76.8; viability (ATP), % of control: 77.5; activity call: inactive
